Experimental data: PubChem BioAssay AID1259405 (NCATS, 2018)

- Screen: 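Knock-downs that lift recombinant protein yield in hamster ovary cells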 (primary screen)
- Cell system: Chinese hamster CHO-K1 ovary cells with stable secreted eGFP expression
- Reagents: single siRNA against mouse genes, 0.8 pmol siRNA per well (2 µl of 400 nM stock)
- Duration: 3 days
- Measured: 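Per-well intracellular GFP measured by laser scanning cytometry, plus viability from ATP luminescence, each relative to plate median of non-targeting control wells, in %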
- Reading the numbers: GFP, % of control: higher = more GFP per well, higher productivity; viability (ATP), % of control: higher = more viable cells (more ATP)
- Call rule: 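a knock-down is called active if GFP reaches 120% or more of non-targeting control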
In all, the deposit lists about 50,000 reagents; below is an unselected part. In the full data, about 4,000 (8%) were called active. 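Mouse siRNA library applied to hamster cells; one well for each siRNA.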 The numbers tell different reagents against one gene apart.

target gene	reagent no.	GFP, % of control	viability (ATP), % of control	Call
Cd8b1	1	105	81	inactive
Cd8b1	2	71	72.6	inactive
Cd8b1	3	94.1	96.6	inactive
Gm4952	1	72.2	80.8	inactive
Gm4952	2	78.6	81	inactive
Gm4952	3	60.7	54	inactive
Pxmp2	1	80	63.2	inactive
Pxmp2	2	79.2	95.1	inactive
Pxmp2	3	39.6	81.2	inactive
Pkn1	1	99.8	64.5	inactive
Pkn1	2	48.5	43.4	inactive
Pkn1	3	179	130	active
Pkn1	4	98.9	91.5	inactive
Pkn1	5	86	87.3	inactive
Pkn1	6	79.8	89.8	inactive
Trim59	1	92.1	74.4	inactive
Trim59	2	60.5	57.5	inactive
Trim59	3	66.7	65.2	inactive

Next part (3 carried over from the part before).
target gene	reagent no.	GFP, % of control	viability (ATP), % of control	Call
Trim59	1	92.1	74.4	inactive
Trim59	2	60.5	57.5	inactive
Trim59	3	66.7	65.2	inactive
Ctsw	1	80.2	93.3	inactive
Ctsw	2	101	40.7	inactive
Ctsw	3	92.4	61.8	inactive
Bbs2	1	37.2	48	inactive
Bbs2	2	123	114	active
Or52u1	1	78.1	76.1	inactive
Or52u1	2	53.6	63.3	inactive
Or52u1	3	82.7	62.9	inactive
Slc3a2	1	96.1	72	inactive
Slc3a2	2	47.6	76.7	inactive
Slc3a2	3	65.8	72.7	inactive
Cdh7	1	92.6	96	inactive
Cdh7	2	85.9	48.2	inactive
Cdh7	3	80.6	74.8	inactive
Gps1	1	48.2	70.5	inactive
Gps1	2	76.3	81.1	inactive
Gps1	3	124	72.8	active
